In paper PMC2660581:
Like-named read-outs stand apart in the source and are kept apart here. These are yes or no findings as the source states them, for the method shown. Some entries that bind do so weakly or less than the wild type. One block for each molecule: values may come before it.

By UniProt entry, the sequences of proteins in these tests, tags left out. Where a name states a change or a piece, a line headed by the entry shows the natural chain unless it says otherwise. Chains listed by the source or under a name are the forms on record and can include a tag or linker. Residues count along the entry.
NOD2 CARD (1+2) (Q9HC29, residues 1-267): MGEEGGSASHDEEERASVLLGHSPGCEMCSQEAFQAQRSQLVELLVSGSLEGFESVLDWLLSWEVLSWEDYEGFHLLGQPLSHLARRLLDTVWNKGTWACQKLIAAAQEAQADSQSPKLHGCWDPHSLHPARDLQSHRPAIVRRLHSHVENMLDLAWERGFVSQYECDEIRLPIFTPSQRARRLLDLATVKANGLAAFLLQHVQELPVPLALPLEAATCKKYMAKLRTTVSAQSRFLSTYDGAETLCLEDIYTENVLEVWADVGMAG
NOD2 1–163 (Q9HC29, residues 1-163): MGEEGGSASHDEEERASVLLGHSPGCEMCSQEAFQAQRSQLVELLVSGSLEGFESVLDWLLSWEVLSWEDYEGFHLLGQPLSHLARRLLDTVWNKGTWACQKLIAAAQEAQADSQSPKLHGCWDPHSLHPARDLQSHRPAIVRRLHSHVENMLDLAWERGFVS
NOD2 1–135 (Q9HC29, residues 1-135): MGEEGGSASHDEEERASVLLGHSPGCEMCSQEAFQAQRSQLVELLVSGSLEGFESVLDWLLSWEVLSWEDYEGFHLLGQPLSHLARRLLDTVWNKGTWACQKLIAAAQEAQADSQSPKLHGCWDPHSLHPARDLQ
NOD2 CARD (1) (Q9HC29, residues 1-116): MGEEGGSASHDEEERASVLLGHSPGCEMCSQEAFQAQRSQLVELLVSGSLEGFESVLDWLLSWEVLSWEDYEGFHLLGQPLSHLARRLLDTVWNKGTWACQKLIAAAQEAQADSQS
NOD2 117–267 (Q9HC29, residues 117-267): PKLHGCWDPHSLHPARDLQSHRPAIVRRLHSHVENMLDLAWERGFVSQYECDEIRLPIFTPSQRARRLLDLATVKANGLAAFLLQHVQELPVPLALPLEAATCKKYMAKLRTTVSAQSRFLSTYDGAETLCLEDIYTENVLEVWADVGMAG
NOD2 CARD (2) (Q9HC29, residues 135-255): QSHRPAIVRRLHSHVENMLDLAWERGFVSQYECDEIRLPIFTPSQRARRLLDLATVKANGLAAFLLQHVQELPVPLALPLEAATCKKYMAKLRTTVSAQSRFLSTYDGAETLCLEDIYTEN
NOD2 CARD (1+2) D70K (Q9HC29, form named): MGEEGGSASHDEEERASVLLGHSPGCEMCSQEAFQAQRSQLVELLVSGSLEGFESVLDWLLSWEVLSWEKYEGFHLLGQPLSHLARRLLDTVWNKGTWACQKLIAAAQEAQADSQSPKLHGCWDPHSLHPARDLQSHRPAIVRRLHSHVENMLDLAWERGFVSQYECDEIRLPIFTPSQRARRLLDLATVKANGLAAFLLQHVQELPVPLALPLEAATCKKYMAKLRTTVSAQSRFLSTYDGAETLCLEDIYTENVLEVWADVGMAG
NOD2 CARD (1+2) E69K (Q9HC29, form named): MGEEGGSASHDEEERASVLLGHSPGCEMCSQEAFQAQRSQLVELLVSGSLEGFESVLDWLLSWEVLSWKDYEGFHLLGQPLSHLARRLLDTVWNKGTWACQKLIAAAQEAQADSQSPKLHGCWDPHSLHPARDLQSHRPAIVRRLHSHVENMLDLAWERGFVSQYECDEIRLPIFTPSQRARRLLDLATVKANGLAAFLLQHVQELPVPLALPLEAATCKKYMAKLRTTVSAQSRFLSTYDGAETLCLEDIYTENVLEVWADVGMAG
NOD2 CARD (1+2) R132Q (Q9HC29, form named): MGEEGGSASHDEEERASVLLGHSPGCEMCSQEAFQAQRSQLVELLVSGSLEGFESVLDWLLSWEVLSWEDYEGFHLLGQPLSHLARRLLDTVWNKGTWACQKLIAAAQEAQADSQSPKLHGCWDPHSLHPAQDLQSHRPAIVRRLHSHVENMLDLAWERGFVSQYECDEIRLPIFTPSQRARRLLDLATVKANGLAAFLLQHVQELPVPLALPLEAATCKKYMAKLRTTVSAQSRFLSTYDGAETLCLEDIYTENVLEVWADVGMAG
UniProt Q9ULZ3, residues 105-195: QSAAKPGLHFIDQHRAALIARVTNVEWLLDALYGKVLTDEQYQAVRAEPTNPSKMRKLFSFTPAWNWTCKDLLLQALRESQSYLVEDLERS
UniProt O14727, residues 1-92: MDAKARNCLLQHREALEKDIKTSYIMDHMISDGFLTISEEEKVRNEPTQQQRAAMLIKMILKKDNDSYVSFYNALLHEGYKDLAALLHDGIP

Legend:
NOD2 CARD (1+2) (human) [1] = target: NOD2 CARD (1+2) (human) (UniProt Q9HC29); experiment: two-hybrid; strength of the interaction: transformants spotted on SD/-His/-Leu/-Trp with increasing amounts of 3-aminotriazole (HIS3 reporter)
NOD2 CARD (1+2) (human) [2] = target: NOD2 CARD (1+2) (human) (UniProt Q9HC29); experiment: two-hybrid; … GAL4 Two-Hybrid System 3, S. cerevisiae AH109 co-transformed with pGBKT7 and pGADT7 fusions; growth on SD/-Ade/-His/-Leu/-Trp, 4 days at 30°C; “each against all” screen (26×26) and later tests with refined constructs
ASC CARD = ASC CARD (UniProt Q9ULZ3); experiment: as above
NLRC4 CARD [3] = target: T1, NLRC4 CARD (UniProt Q9NPP4); experiment: as above
T1 sequence: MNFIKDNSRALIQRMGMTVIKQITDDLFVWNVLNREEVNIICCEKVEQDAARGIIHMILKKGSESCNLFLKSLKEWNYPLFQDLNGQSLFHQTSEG

NLRP1 CARD [4] = target: T2, NLRP1 CARD (UniProt Q9C000); experiment: as above
T2 sequence: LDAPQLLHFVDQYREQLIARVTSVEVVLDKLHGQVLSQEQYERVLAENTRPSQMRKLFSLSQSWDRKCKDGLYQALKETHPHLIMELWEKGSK

NLRP1 PYD [5] = target: T3, NLRP1 PYD (UniProt Q9C000); experiment: as above
T3 sequence: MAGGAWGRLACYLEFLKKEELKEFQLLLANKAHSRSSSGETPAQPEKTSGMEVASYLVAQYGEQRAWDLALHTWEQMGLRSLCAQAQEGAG

NOD1 CARD (16–108) [6] = target: T4, NOD1 CARD (16–108) (UniProt Q9Y239); experiment: as above
T4 sequence: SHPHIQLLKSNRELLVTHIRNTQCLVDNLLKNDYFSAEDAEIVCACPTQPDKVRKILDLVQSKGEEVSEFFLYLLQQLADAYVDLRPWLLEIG

NOD1 CARD (1–110) [7] = target: T5, NOD1 CARD (1–110) (UniProt Q9Y239); experiment: as above
T5 sequence: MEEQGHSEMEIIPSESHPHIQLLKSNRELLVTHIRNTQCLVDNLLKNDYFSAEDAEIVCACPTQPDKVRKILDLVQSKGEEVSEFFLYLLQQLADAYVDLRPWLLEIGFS

NOD2 CARD (1) (human) [8] = target: NOD2 CARD (1) (human) (UniProt Q9HC29); experiment: as above
NOD2 CARD (2) (human) [9] = target: NOD2 CARD (2) (human) (UniProt Q9HC29); experiment: as above
NLRP1 CARD [10] = target: T2, NLRP1 CARD; experiment: as above; remark: listed apart in the source
NLRP1 PYD [11] = target: T3, NLRP1 PYD; experiment: as above; remark: listed apart in the source
NOD1 CARD (16–108) [12] = target: T4, NOD1 CARD (16–108); experiment: as above; remark: listed apart in the source
NOD1 CARD (1–110) [13] = target: T5, NOD1 CARD (1–110); experiment: as above; remark: listed apart in the source
NOD2 CARD (1) (human) [14] = target: NOD2 CARD (1) (human) (UniProt Q9HC29); experiment: as above; remark: listed apart in the source
NOD2 CARD (1+2) (human) [15] = target: NOD2 CARD (1+2) (human) (UniProt Q9HC29); experiment: as above; remark: listed apart in the source
NOD2 CARD (2) (human) [16] = target: NOD2 CARD (2) (human) (UniProt Q9HC29); experiment: as above; remark: listed apart in the source
APAF1 CARD = APAF1 CARD (UniProt O14727); experiment: as above
CASP1 CARD, P29466 = target: T6, CASP1 CARD, P29466; experiment: as above; conditions: remark: other sources report otherwise
T6 chain: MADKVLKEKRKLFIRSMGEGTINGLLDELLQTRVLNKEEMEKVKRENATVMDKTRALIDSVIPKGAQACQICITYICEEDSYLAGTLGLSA

NLRC4 CARD [17] = target: T1, NLRC4 CARD; experiment: as above; remark: listed apart in the source
NOD2 117–267 (human) = NOD2 117–267 (human) (UniProt Q9HC29); experiment: as above
NOD2 1–135 (human) = NOD2 1–135 (human) (UniProt Q9HC29); experiment: as above
NOD2 1–163 (human) = NOD2 1–163 (human) (UniProt Q9HC29); experiment: as above
[18] = target: NOD2 CARD (1+2) D70K (human) (UniProt Q9HC29); experiment: as above
[19] = target: NOD2 CARD (1+2) E69K (human) (UniProt Q9HC29); experiment: as above
[20] = target: NOD2 CARD (1+2) R132Q (human) (UniProt Q9HC29); experiment: as above

Molecule: CASP1 CARD (from UniProt P29466 1-91) (domain or fragment)
binding (ASC CARD): binds | binding (NLRC4 CARD [3]): no binding | binding (NLRP1 CARD [4]): no binding | binding (NLRP1 PYD [5]): no binding | binding (NOD1 CARD (16–108) [6]): no binding | binding (NOD1 CARD (1–110) [7]): no binding | binding (NOD2 CARD (1) (human) [8]): no binding | binding (NOD2 CARD (1+2) (human) [2]): no binding | binding (NOD2 CARD (2) (human) [9]): no binding

B1: CASP2 CARD (domain or fragment, UniProt P42575 32-121)
chain: MHPHHQETLKKNRVVLAKQLLLSELLEHLLEKDIITLEMRELIQAKVGSFSQNVELLNLLPKRGPQAFDAFCEALRETKQGHLEDMLLTT
binding (NLRP1 CARD [10]): no binding | binding (NLRP1 PYD [11]): no binding | binding (NOD1 CARD (16–108) [12]): no binding | binding (NOD1 CARD (1–110) [13]): no binding | binding (NOD2 CARD (1) (human) [14]): no binding | binding (NOD2 CARD (1+2) (human) [15]): no binding | binding (NOD2 CARD (2) (human) [16]): no binding

B2: CASP4 CARD (domain or fragment, UniProt P49662 1-89)
chain: MAEGNHRKKPLKVLESLGKDFLTGVLDNLVEQNVLNWKEEEKKKYYDAKTEDKVRVMADSMQEKQRMAGQMLLQTFFNIDQISPNKKAH
binding (APAF1 CARD): no binding | binding (NOD1 CARD (16–108) [12]): no binding | binding (NOD1 CARD (1–110) [13]): no binding | binding (NOD2 CARD (1) (human) [14]): no binding | binding (NOD2 CARD (1+2) (human) [15]): no binding | binding (NOD2 CARD (2) (human) [16]): no binding

B3: CASP1 CARD, P29466 1-91 (domain or fragment)
chain: T6 chain
binding (CASP1 CARD, P29466): no binding

B4: NLRP1 PYD (domain or fragment, UniProt Q9C000 1-91)
chain: T3 sequence
binding (NLRC4 CARD [17]): no binding | binding (NLRP1 CARD [10]): no binding | binding (NLRP1 PYD [11]): no binding | binding (NOD1 CARD (16–108) [12]): no binding | binding (NOD1 CARD (1–110) [13]): no binding

Further lines, results first:

binding (NOD2 CARD (1+2) (human) [1]): binds weakly | binding (NOD2 CARD (1+2) (human) [2]): binds
Molecule: NOD2 CARD (1+2) (from UniProt Q9HC29 1-267) (domain or fragment)

binding (NOD1 CARD (1–110) [13]): no binding | binding (NOD2 117–267 (human)): no binding | binding (NOD2 1–135 (human)): no binding | binding (NOD2 1–163 (human)): no binding | binding (NOD2 CARD (1) (human) [14]): no binding | binding (NOD2 CARD (1+2) (human) [15]): binds | binding [18]: no binding | binding [19]: binds | binding [20]: binds | binding (NOD2 CARD (2) (human) [16]): no binding
B5: NLRP1, PYD+linker (domain or fragment, UniProt Q9C000 1-341)
chain: MAGGAWGRLACYLEFLKKEELKEFQLLLANKAHSRSSSGETPAQPEKTSGMEVASYLVAQYGEQRAWDLALHTWEQMGLRSLCAQAQEGAGHSPSFPYSPSEPHLGSPSQPTSTAVLMPWIHELPAGCTQGSERRVLRQLPDTSGRRWREISASLLYQALPSSPDHESPSQESPNAPTSTAVLGSWGSPPQPSLAPREQEAPGTQWPLDETSGIYYTEIREREREKSEKGRPPWAAVVGTPPQAHTSLQPHHHPWEPSVRESLCSTWPWKNEDFNQKFTQLLLLQRPHPRSQDPLVKRSWPDYVEENRGHLIEIRDLFGPGLDTQEPRIVILQGAAGIGKS
